Results are given in words; binding and its absence hold for the method and conditions named. Binding seen in cells or lysates may run through a third protein. Some results given as binding are weak or reduced against the parent protein; the word gives no strength.
Experiments:
[1] = biological target: Pim-1 kinase, endogenous in PEL cells (human (endogenous in BC-3 and BCBL-1)) (UniProt P11309); assay: co-IP; data not shown; PEL cell lines reactivated with NaB (2 mM, 48 h), immunoprecipitation of Pim-1 and Pim-3
[2] = biological target: Pim-3 kinase, endogenous in PEL cells (human (endogenous in BC-3 and BCBL-1)) (UniProt Q86V86); assay: as above
[3] = biological target: Pim-1 kinase, endogenous in PEL cells (human (endogenous in BC-3 and BCBL-1)) (UniProt P11309); assay: co-IP; anti-Pim-1 or anti-Pim-3 immunoprecipitation from whole-cell extracts (600 ug; for Pim-1 also 1200 ug) of reactivated PEL cells (BC-3, BCBL-1; TPA 20 ng/ml 48 h; BC-3 also TPA or IFN-gamma 16 h); ELB lysis buffer (150 mM NaCl, 50 mM HEPES pH 7.4, 0.1% Igepal, 5 mM EDTA), 4 C; in vitro kinase assay on co-precipitated proteins, kinase filter immunoblotted with anti-LANA
[4] = biological target: Pim-3 kinase, endogenous in PEL cells (human (endogenous in BC-3 and BCBL-1)) (UniProt Q86V86); assay: as above
[5] = biological target: V5-tagged Pim-1 (wild type) (human) (UniProt P11309); assay: co-IP; 293 cells co-transfected with LANA wt or SS205/206RR and V5-tagged Pim-1 or Pim-3; after 48 h extracts immunoprecipitated with anti-V5; in vitro kinase assay on co-precipitated proteins, filter immunoblotted with anti-LANA and anti-V5
[6] = biological target: V5-tagged Pim-3 (wild type) (human) (UniProt Q86V86); assay: as above

Sequences of proteins named here, by UniProt entry; tags and fusion partners are left off.
UniProt P11309: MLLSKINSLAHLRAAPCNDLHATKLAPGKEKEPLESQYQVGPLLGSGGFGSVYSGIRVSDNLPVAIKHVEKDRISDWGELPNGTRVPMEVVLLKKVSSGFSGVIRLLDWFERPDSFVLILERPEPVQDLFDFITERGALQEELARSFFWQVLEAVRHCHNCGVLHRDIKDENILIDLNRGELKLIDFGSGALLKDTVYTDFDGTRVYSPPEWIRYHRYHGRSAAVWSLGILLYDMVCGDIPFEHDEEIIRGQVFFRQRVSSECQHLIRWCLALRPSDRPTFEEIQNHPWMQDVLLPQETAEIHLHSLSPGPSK
UniProt Q9QR71: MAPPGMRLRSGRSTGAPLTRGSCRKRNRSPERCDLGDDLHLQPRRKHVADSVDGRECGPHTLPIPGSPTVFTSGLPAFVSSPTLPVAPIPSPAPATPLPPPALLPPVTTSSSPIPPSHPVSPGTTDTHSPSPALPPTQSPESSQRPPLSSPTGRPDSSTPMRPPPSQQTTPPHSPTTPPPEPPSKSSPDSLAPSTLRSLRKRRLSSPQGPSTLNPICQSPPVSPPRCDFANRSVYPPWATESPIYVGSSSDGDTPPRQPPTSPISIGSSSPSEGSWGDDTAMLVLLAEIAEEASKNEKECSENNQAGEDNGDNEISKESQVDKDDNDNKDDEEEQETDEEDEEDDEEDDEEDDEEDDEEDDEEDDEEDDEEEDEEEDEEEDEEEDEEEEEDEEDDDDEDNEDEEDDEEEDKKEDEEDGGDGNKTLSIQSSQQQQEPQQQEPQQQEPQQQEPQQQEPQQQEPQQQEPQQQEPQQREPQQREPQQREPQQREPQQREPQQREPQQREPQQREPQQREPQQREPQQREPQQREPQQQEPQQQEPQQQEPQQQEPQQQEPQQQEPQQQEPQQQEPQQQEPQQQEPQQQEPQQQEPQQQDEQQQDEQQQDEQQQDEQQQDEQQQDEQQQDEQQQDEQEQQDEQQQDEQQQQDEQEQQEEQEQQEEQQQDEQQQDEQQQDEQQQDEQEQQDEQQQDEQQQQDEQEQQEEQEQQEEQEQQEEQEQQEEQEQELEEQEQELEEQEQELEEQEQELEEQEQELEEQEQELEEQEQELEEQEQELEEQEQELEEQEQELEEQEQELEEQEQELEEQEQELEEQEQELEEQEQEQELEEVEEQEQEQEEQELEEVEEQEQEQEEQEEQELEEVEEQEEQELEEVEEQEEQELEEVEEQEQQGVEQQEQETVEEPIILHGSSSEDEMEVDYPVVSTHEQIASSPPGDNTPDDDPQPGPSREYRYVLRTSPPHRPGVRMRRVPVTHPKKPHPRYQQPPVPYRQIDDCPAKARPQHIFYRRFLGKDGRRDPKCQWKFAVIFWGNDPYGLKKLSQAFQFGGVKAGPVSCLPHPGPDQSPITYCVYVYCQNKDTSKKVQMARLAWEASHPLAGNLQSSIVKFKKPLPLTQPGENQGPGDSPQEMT

Measured: binding

Latency-associated nuclear antigen (LANA), endogenous in KSHV-infected PEL cells (from UniProt Q9QR71 1-1129)
binds: [1] | [2] | [3] | [4]

LANA wild type, expressed from pCDNA3.1-LANA (from UniProt Q9QR71 1-1129)
binds: [5] | [6]

From article PMC2648312
